{"source": "PubChem BioAssay AID720505 (Drosophila RNAi Screening Center, 2013)", "test": "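Fly regulators or components of the CRAC channel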 (primary screen)", "system": "Drosophila S2R+ cells", "reagent": "long dsRNA against Drosophila genes", "challenge": "thapsigargin (2 µM) in calcium-free buffer to empty internal stores, then 2 mM calcium added back", "detection": "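Stores emptied by 2 µM thapsigargin without calcium, then 2 mM calcium re-added; fluo-4 fluorescence followed by FLIPR in 384-well plates, per-well averaged endpoint, raw; two screen passes, some wells retested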", "direction": "calcium signal and retest calcium signal: higher = more calcium entry after store depletion", "hit rule": "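About 1500 genes called as lowering calcium entry, by varying amounts, judged against per-plate control wells with STIM1 as positive and Rho1 as negative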", "calls": "active = called as lowering calcium entry; inactive = not called", "note": "The deposit covers about 20,000 reagents; shown is a random part of those with a known target gene and a result. Of all reagents, about 2,100 (10%) were called active. 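Raw plate signals without normalisation; calls rest on control-based scores that were not deposited; replicate 2 separates called from uncalled poorly.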 Reagents against one gene are numbered here. The record does not give: the amount of reagent, the time to read-out."}
{"target": "MED15 (Mediator complex subunit 15)", "reagent no.": 1, "calcium signal, replicate 1": 64.8, "calcium signal, replicate 2": 151, "outcome": "active"}
{"target": "CG30423", "reagent no.": 1, "calcium signal, replicate 1": 69.6, "calcium signal, replicate 2": 74, "outcome": "active"}
{"target": "Ddx56 (DEAD-box helicase 56)", "reagent no.": 1, "calcium signal, replicate 1": 62.7, "calcium signal, replicate 2": 103, "outcome": "active"}
{"target": "CG30065", "reagent no.": 1, "calcium signal, replicate 1": 74, "calcium signal, replicate 2": 108, "outcome": "inactive"}
{"target": "Irbp (Inverted repeat-binding protein)", "reagent no.": 1, "calcium signal, replicate 1": 105, "calcium signal, replicate 2": 110, "outcome": "inactive"}
{"target": "Irbp (Inverted repeat-binding protein)", "reagent no.": 2, "calcium signal, replicate 1": 95, "calcium signal, replicate 2": 152, "outcome": "inactive"}
{"target": "CG30278", "reagent no.": 1, "calcium signal, replicate 1": 120, "calcium signal, replicate 2": 161, "outcome": "inactive"}
{"target": "CysRS (Cysteinyl-tRNA synthetase)", "reagent no.": 1, "calcium signal, replicate 1": 198, "calcium signal, replicate 2": 124, "retest calcium signal, replicate 1": 82.3, "retest calcium signal, replicate 2": 123, "outcome": "inactive"}
{"target": "CG16978", "reagent no.": 1, "calcium signal, replicate 1": 138, "calcium signal, replicate 2": 89.2, "outcome": "inactive"}
{"target": "Jhbp11 (Juvenile hormone binding protein 11)", "reagent no.": 1, "calcium signal, replicate 1": 174, "calcium signal, replicate 2": 141, "outcome": "inactive"}
{"target": "Fmo-2 (Flavin-containing monooxygenase 2)", "reagent no.": 1, "calcium signal, replicate 1": 140, "calcium signal, replicate 2": 91.8, "outcome": "inactive"}
{"target": "Cyp309a1 (Cytochrome P450 309a1)", "reagent no.": 1, "calcium signal, replicate 1": 201, "calcium signal, replicate 2": 166, "outcome": "inactive"}

Entries listed so far marked active:
{"target": "MED15 (Mediator complex subunit 15)", "reagent no.": 1, "calcium signal, replicate 1": 64.8, "calcium signal, replicate 2": 151, "outcome": "active"}
{"target": "CG30423", "reagent no.": 1, "calcium signal, replicate 1": 69.6, "calcium signal, replicate 2": 74, "outcome": "active"}
{"target": "Ddx56 (DEAD-box helicase 56)", "reagent no.": 1, "calcium signal, replicate 1": 62.7, "calcium signal, replicate 2": 103, "outcome": "active"}
